# Where “and” joins values, the source holds several entries; their conditions need not be identical. Identical values can stand only once. Some of the results follow. The main result of the screen is listed elsewhere. These columns were measured beside it and carry no call. The list favours compounds with an active or inconclusive main result. Words in brackets tell the shape of the fitted curve; partial curves, single points and poor fits give uncertain potencies.
# Experiment: IkB Signaling
# Conditions: ABC-DLBCL IkBa-CBG/CBR dual luciferase ratio (green luciferase fused to IkBa over red control in OCI-Ly3 lymphoma cells), 4 h
# In short: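 Luminescence ratio of IκBα-fused green versus native red beetle luciferase in OCI-Ly3 cells, 4 h post-doxycycline with compound; red signal alone, scaled from basal (0%) to zero light (-100%), flagged nonspecific or cytotoxic effects.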
# [1] = measured here: IkB-luc green channel
# [2] = measured here: control luc red channel
# [3] = measured here: control luc red channel unless noted
compound,measurement,setting,value
Cc1sc2nc3c4ccccc4c(NCc4ccco4)nn3c(=O)c2c1C,AC50,[1],"6.31 µM [rising, single point]"
same,AC50,[2],"39.8 µM [falling, single point]"
Cc1ccc(OCC(=O)Nc2ccc(S(=O)(=O)N(Cc3ccccc3)c3ccccc3)cc2)cc1,AC50,[3],"6.31 µM [rising, partial curve]"
COC(=O)c1sccc1NC(=O)CSc1nnnn1-c1ccccc1F,AC50,[3],"12.6 µM [falling, partial curve]"
CCOC(=O)c1c(-c2ccc(OC)c(OC)c2)csc1NC(=O)c1ccc(F)cc1,AC50,[3],"6.31 µM [falling, partial curve]"
COc1cccc(N2C(=O)CSC23C(=O)N(CC(=O)NCc2ccc(C)cc2)c2ccccc23)c1 (configuration not stated),AC50,[3],"20 µM [falling, partial curve, poor fit]"
CSC1=NC2(CCN(C(=O)NC3CCCCC3)CC2)N=C1c1ccc(C(C)(C)C)cc1,AC50,[3],"12.6 µM [falling, partial curve]"
CCc1ccc2occ(CC(=O)Nc3sc4c(c3C(=O)OC)CCC4)c2c1,AC50,[3],"12.6 µM [falling, partial curve]"
O=C(NCS(=O)(=O)c1ccccc1)c1ccccc1,AC50,[3],"20 µM [rising, partial curve] [measured here: IkB-luc green channel]"
CCC(=O)N1CCc2cc(Br)cc(S(=O)(=O)N(CC)Cc3ccccc3)c21,AC50,[3],"10 µM [falling, partial curve]"
O=C(CSc1nnc(-c2ccccc2)n1Cc1ccco1)Nc1ccc2c(c1)OCCO2,AC50,[3],"20 µM [falling, partial curve]"
Cc1cccc(N2CCN(c3ncnc4onc(C)c34)CC2C)c1 (configuration not stated),AC50,[3],"3.16 µM [falling, full curve]"
Cc1nc(-c2cccc(F)c2)sc1CCNC(=O)C(=O)Nc1ccc2c(c1)OCO2,AC50,[3],"31.6 µM [rising, partial curve, poor fit]"
COC(=O)CSc1ccc2nnc(CCNS(=O)(=O)c3ccccc3)n2n1,AC50,[3],"6.31 µM [rising, partial curve]"
CCC(=O)Nc1cccc(-c2nc3ccccc3o2)c1,AC50,[3],"20 µM [falling, single point]"
CCOC(=O)c1ccc(NC(=O)c2c(NCc3cc(OC)c(OC)cc3OC)sc3c2CCCC3)cc1,AC50,[3],"10 µM [falling, partial curve]"
Cn1c(=O)oc2cc(S(=O)(=O)N3CCCC(C(=O)N4CCN(c5cccc(Cl)c5)CC4)C3)ccc21 (configuration not stated),AC50,[3],"10 µM [falling, partial curve]"
O=C(CC1(O)C(=O)N(Cc2ccccc2)c2ccc(Br)cc21)c1ccccc1 (configuration not stated),AC50,[3],"20 µM [falling, partial curve, poor fit]"
NS(=O)(=O)c1cc(C(=O)O)cc(N2CCCC2)c1Oc1ccccc1,AC50,[3],"7.94 µM [rising, partial curve] [measured here: IkB-luc green channel]"
CCOC(=O)c1cccc(NC(=O)Nc2cc(OC)ccc2OC)c1,AC50,[3],"10 µM [falling, partial curve]"
CCOC(=O)Cn1cnc2c(cnn2-c2ccc(C)c(C)c2)c1=O,AC50,[3],"31.6 µM [falling, single point]"
COc1ccccc1-c1nc(C#N)c(N2CCc3ccccc3C2)o1,AC50,[3],"39.8 µM [falling, single point]"
Cc1ccccc1C(=O)NCc1ccc2c(c1)CCN2C(=O)c1ccc(F)cc1,AC50,[3],"25.1 µM [falling, partial curve]"
O=C(Nc1cccc(S(=O)(=O)C(F)F)c1)c1ccc(S(=O)(=O)N2CCOCC2)cc1,AC50,[3],"12.6 µM [falling, partial curve]"
COc1ccccc1CNC(=O)c1cc(-c2ccccc2)n[nH]1,AC50,[3],"12.6 µM [falling, partial curve]"
CNC(=O)[C@@H]1O[C@@H](n2cnc3c(NCc4cccc(I)c4)ncnc32)[C@H](O)[C@@H]1O,AC50,[3],"2.51 µM [rising, partial curve] [measured here: IkB-luc green channel]"
O=C(NCCCN1CCN(c2cccc(Cl)c2)CC1)c1nnc(Cc2ccc(F)cc2Cl)o1,AC50,[3],"31.6 µM [falling, single point]"
Cc1ccc2nc(NC(=O)CSc3ncc(C(=O)Nc4ccccc4)c(=O)n3C)sc2c1,AC50,[3],"7.94 µM [falling, partial curve]"
CCOP(=O)(c1ccc(N(C)C)cc1)C(O)c1ccc(Cl)cc1 (configuration not stated),AC50,[3],"2 µM [falling, full curve]"
O=C(COc1ccc(Br)cc1)Nc1cccc2cccnc12,AC50,[3],"5.01 µM [rising, single point]"
COC(=O)CN1C(=O)C(C)(C)c2cc(S(=O)(=O)Nc3ccc(C(C)C)cc3)ccc21,AC50,[3],"25.1 µM [falling, partial curve, poor fit]"
COc1cccc(NC(=O)c2oc3ccccc3c2NC(=O)Cc2cccc(C)c2)c1,AC50,[3],"10 µM [falling, partial curve]"
CCc1ccc(-n2nc(CO)c(C(=O)NCCCCc3ccccc3)n2)cc1,AC50,[3],"0.2 µM [rising, full curve, poor fit]"
Cc1ccccc1OCC(=O)N(Cc1ccc(C(C)C)cc1)C1CCS(=O)(=O)C1 (configuration not stated),AC50,[3],"31.6 µM [falling, partial curve]"
COc1ccc(N2CC(NC(=O)c3ccc(S(=O)(=O)N4CCOCC4)cc3)CC2=O)cc1 (configuration not stated),AC50,[3],"6.31 µM [falling, single point]"
COc1cc2c(cc1OC)C(COc1ccc(C(C)C)cc1)N(C(=O)COc1ccccc1)CC2 (configuration not stated),AC50,[3],"20 µM [falling, single point]"
COc1ccccc1NC(=O)C1CCN(c2ncnc3c2nc2n3CCCCC2)CC1,AC50,[3],"39.8 µM [falling, partial curve, poor fit]"
CCOC(=O)CSc1ncnc2c1c(-c1ccccc1)cn2-c1ccc(OC)cc1,AC50,[3],"7.94 µM [falling, single point]"
CC(C)c1[nH]nc2c1C(C(C)C)C(C#N)=C(N)O2 (configuration not stated),AC50,[3],"31.6 µM [falling, partial curve]"
Cc1cccc(C(=O)Nc2cccc(C(=O)OCc3cc(=O)n4nc(C5CC5)sc4n3)c2)c1,AC50,[3],"0.794 µM [falling, full curve]"
N#Cc1ccccc1NC(=O)C(=O)NCC(c1cccnc1)N1CCN(c2ccccc2)CC1 (configuration not stated),AC50,[3],"10 µM [falling, partial curve]"
O=C(NCc1ccco1)c1cc(-c2ccc(F)cc2)on1,AC50,[3],"3.16 µM [falling, full curve]"
CCOc1ccc(C(=O)Nc2ccc3nc(SCC(=O)N4CCOCC4)sc3c2)cc1,AC50,[3],"12.6 µM [falling, partial curve]"
CCN1CCN(C(=O)c2ccc3c(c2)N(Cc2cc(C)ccc2C)C(=O)c2ccccc2S3(=O)=O)CC1,AC50,[3],"31.6 µM [falling, partial curve]"
Cc1cc(C)n(-c2nc3ccccc3c(=O)n2OCC(=O)OCc2ccccc2)n1,AC50,[3],"31.6 µM [rising, single point] [measured here: IkB-luc green channel]"
CCOC(=O)c1c(C)oc2nc(C)nc(NCCc3ccc(S(N)(=O)=O)cc3)c12,AC50,[3],"0.316 µM [rising, full curve, poor fit]"
CCCSCCCNC(=O)CN1C(=O)COc2ccc(S(=O)(=O)N3CCCCCC3)cc21,AC50,[3],"31.6 µM [falling, single point]"
Cc1cc(NC(=O)CN(c2cccc(C)c2C)S(=O)(=O)c2ccccc2)ccc1Br,AC50,[3],"3.98 µM [falling, full curve]"
COc1ccc(CCC(=O)NCc2ccc3c(c2)CCN3C(=O)c2cccc(C)c2)cc1,AC50,[3],"39.8 µM [falling, single point]"
C=CCNC(=O)c1cc(-c2ccccc2O)on1,AC50,[3],"1.26 µM [falling, full curve]"
COc1ccc(C(=O)Nc2ccc(-c3cc(C(F)(F)F)nn3-c3ccccc3)cc2)cc1OC,AC50,[3],"10 µM [falling, partial curve]"
COc1ccc(-c2nnn(CC(=O)OC3CCCCC3)n2)cc1OC,AC50,[3],"39.8 µM [falling, single point]"
Cc1oc(-c2cccc(Cl)c2)nc1CSCC(=O)O,AC50,[3],"7.94 µM [falling, partial curve]"
CCN(C(=O)c1cc2c(Cl)nc3ccc(C)cc3c2s1)c1cc(OC)ccc1OC,AC50,[3],"10 µM [falling, partial curve]"
Cc1ccc2cc(CN(Cc3cccs3)Cc3nnnn3CC3CCCO3)c(=O)[nH]c2c1 (configuration not stated),AC50,[3],"12.6 µM [falling, partial curve]"
CC1(c2ccccc2)CC(C)(C)N(C(=O)c2ccccc2Cl)c2ccccc21 (configuration not stated),AC50,[3],"10 µM [falling, partial curve]"
COc1ccccc1C(=O)Nc1c(C(=O)Nc2ccc(C)cc2)oc2ccccc12,AC50,[3],"25.1 µM [falling, single point]"
CCOC(=O)c1cccc(NC(=O)CCc2nc(-c3ccc(C)cc3)no2)c1,AC50,[3],"2.51 µM [falling, full curve, poor fit]"
Cc1cccc(-c2nnc(SCCC(=O)O)o2)c1,AC50,[3],"1.26 µM [falling, full curve]"
Cc1ccc2nc(N3CCC(C(=O)O)CC3)nc(-c3ccccc3)c2c1,AC50,[3],"10 µM [falling, partial curve]"
O=C(O)c1cccnc1Nc1cccc(C(F)(F)F)c1,AC50,[1],"5.01 µM [rising, partial curve, poor fit]"
same,AC50,[2],"10 µM [falling, full curve] and 7.94 µM [falling, partial curve]"

# — PubChem BioAssay AID445 (National Center for Advancing Translational Sciences (NCATS), 2006)
